Measured values reported in patent publication US20130129725A1.
No constants are given. Whether binding was seen depends on the method and setting. Some binding calls cover weakened binding; strength is not graded here.

Sequences of proteins named here, by UniProt entry; tags and fusion partners are left off. A change or cut given only in a name is not applied to a line headed by its entry.
UniProt P11362: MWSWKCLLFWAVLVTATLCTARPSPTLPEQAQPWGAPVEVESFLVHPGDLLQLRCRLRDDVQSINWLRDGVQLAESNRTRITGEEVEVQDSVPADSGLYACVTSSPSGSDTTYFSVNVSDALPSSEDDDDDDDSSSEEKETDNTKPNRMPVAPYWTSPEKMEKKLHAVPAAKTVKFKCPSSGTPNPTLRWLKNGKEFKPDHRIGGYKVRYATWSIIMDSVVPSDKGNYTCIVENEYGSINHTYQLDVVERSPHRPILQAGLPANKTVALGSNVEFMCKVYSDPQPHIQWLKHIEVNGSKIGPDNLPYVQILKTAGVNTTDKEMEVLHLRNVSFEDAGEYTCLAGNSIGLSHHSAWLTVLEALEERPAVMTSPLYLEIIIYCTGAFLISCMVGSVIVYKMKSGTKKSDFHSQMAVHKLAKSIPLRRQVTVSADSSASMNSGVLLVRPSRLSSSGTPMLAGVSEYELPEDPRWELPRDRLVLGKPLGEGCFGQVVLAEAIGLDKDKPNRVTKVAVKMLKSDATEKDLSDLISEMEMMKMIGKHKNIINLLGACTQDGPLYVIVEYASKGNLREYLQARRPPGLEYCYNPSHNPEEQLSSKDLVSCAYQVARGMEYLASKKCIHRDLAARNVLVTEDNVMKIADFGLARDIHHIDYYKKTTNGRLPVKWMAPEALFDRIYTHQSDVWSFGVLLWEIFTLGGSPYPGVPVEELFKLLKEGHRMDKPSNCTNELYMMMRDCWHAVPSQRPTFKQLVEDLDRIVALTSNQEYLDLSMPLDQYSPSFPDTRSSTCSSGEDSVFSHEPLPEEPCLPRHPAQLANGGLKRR
UniProt Q9NSA1: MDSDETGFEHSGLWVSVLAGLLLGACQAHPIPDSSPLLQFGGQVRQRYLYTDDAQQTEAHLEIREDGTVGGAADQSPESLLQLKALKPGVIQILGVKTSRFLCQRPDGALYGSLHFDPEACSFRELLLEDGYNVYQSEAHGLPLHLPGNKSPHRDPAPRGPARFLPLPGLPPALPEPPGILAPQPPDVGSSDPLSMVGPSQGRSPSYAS

Legend:
[1] = target: FGF21R (FGFR1c and β-Klotho) on transfected AM1 CHO or 293T cells (human) (UniProt P11362); assay: flow cytometry on FGFR1c/β-Klotho transfected AM1 CHO or 293T cells
[2] = target: FGF21R (FGFR1c and β-Klotho) on transfected AM1 CHO or 293T cells (human) (UniProt P11362); assay: flow cytometry on cells used as immunogen (FIG. 3)

Alexa 647-labeled FGF21 (from UniProt Q9NSA1 29-209) (ligand)
binding [1]: binds
binding [2]: binds
